Measurements published in the supplement of paper PMC6411743.
± gives the standard deviation of the averaged measurements. This is one part of the list.

Chains of the proteins cited; added tags and fusions are not shown. Lines headed by an entry give the natural chain unless they say otherwise; changes in a name come on top.
UniProt Q9UL40: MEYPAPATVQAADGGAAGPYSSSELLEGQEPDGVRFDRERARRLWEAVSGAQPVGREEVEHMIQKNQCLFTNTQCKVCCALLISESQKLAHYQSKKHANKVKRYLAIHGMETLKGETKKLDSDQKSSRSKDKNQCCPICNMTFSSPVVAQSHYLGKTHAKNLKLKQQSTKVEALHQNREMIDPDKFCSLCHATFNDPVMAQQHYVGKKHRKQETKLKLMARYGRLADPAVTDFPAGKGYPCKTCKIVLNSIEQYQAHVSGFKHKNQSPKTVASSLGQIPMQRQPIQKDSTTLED
UniProt P49585: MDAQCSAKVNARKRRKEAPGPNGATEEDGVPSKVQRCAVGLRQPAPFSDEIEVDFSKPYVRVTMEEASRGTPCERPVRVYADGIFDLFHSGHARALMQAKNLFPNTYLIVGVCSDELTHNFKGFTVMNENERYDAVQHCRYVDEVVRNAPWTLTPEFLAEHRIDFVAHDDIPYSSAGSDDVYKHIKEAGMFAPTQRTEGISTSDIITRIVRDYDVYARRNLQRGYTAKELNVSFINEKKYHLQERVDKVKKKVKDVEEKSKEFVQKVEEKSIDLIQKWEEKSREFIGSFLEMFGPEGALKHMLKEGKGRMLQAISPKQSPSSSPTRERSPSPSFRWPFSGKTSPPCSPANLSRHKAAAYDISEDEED
UniProt Q86WB0: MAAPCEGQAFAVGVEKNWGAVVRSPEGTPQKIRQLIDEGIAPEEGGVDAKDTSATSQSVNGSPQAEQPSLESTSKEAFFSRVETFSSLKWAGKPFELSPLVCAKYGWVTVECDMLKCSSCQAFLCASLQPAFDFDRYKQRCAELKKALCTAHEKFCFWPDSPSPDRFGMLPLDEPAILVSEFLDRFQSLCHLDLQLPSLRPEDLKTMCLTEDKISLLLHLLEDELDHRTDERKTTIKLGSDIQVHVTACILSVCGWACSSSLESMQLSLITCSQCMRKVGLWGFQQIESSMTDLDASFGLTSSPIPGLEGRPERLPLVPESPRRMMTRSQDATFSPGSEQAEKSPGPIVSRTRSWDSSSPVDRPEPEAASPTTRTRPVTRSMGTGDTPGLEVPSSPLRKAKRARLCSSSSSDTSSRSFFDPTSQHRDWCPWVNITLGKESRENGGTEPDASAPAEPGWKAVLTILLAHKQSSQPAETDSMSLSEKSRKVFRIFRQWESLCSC
UniProt A6QL63: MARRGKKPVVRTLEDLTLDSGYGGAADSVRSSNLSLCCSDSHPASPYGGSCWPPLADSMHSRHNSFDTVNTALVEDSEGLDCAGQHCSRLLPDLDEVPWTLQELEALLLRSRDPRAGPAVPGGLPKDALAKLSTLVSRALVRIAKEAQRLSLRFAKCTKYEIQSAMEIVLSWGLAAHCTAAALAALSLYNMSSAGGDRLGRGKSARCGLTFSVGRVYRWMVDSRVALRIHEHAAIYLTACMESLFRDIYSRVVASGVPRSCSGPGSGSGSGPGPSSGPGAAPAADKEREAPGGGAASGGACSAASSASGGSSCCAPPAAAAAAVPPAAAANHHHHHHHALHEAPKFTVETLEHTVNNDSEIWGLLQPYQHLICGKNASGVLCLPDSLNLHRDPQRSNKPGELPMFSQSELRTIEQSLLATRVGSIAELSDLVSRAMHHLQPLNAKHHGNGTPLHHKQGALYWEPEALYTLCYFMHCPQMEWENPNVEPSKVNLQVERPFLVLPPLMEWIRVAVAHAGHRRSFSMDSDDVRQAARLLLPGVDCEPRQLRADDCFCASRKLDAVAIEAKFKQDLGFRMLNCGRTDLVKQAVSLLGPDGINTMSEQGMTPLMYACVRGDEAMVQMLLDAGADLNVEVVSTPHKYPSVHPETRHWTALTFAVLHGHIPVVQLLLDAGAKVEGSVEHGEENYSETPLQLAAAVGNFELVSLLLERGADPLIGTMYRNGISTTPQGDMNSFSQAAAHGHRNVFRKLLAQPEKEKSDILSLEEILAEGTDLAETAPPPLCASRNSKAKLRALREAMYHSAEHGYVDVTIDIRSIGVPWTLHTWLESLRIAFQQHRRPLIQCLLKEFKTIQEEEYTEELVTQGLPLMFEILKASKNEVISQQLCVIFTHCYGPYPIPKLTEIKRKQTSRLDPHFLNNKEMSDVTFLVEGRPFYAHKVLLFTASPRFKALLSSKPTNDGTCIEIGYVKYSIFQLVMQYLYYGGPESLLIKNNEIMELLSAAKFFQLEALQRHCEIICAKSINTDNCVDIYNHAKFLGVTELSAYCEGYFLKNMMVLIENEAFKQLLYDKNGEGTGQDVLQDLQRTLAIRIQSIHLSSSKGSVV
UniProt P30626: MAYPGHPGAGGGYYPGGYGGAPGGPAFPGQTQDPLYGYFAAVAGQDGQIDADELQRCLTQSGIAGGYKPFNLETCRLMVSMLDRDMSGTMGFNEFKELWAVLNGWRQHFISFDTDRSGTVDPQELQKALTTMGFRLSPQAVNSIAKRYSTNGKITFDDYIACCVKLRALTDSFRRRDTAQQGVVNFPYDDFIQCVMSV
UniProt Q7L5Y9: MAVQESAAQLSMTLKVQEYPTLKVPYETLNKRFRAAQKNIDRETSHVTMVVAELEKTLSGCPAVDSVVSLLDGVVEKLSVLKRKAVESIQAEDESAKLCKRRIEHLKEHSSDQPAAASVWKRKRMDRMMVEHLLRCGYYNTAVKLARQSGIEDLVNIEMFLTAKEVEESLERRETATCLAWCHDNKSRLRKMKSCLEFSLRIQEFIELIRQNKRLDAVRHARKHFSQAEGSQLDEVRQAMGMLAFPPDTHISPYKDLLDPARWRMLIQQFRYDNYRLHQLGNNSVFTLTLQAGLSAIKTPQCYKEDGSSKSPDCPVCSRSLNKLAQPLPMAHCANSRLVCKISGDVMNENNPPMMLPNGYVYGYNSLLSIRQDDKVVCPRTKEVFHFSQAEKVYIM
UniProt P15882: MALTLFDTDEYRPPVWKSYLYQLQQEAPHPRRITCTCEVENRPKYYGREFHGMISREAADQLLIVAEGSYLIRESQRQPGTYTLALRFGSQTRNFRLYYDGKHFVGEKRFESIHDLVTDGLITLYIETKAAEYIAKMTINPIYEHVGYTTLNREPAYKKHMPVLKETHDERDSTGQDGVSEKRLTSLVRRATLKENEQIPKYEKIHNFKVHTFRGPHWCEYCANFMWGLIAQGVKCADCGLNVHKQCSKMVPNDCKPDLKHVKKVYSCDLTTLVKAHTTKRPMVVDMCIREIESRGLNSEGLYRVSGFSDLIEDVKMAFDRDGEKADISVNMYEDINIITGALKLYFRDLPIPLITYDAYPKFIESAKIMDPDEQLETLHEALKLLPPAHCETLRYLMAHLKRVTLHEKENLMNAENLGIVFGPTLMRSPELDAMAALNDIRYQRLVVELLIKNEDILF
UniProt Q96GQ7: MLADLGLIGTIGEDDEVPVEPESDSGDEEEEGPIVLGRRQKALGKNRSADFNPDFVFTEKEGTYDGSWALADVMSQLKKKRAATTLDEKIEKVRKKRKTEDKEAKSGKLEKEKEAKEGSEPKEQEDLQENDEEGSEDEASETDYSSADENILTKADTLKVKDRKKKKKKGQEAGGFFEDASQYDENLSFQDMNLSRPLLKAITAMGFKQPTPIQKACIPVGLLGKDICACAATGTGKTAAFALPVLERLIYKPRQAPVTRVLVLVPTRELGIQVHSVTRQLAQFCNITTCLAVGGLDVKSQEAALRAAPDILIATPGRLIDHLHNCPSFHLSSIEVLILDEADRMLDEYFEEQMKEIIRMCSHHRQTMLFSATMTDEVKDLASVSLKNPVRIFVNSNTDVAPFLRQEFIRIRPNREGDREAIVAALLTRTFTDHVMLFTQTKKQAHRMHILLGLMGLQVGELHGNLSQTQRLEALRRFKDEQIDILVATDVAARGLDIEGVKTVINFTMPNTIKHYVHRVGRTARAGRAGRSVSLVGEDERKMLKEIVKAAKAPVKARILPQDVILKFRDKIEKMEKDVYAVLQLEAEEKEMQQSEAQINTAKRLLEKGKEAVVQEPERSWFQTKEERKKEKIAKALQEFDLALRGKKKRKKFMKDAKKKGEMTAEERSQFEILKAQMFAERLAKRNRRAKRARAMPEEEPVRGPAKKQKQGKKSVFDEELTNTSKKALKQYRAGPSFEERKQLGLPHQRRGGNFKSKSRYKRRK
UniProt O76075: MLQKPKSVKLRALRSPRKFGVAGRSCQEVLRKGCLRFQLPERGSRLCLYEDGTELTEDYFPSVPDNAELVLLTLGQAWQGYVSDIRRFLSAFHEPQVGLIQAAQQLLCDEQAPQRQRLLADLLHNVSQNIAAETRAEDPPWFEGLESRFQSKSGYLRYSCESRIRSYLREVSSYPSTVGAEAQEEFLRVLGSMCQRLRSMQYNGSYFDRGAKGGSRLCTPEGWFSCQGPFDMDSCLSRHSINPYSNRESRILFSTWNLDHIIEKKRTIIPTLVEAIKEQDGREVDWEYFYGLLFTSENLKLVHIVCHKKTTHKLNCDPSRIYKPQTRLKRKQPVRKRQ
UniProt Q9NP97, whole entry: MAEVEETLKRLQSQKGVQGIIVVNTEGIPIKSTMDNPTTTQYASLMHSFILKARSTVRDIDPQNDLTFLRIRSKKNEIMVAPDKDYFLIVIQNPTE
UniProt P62304, whole entry: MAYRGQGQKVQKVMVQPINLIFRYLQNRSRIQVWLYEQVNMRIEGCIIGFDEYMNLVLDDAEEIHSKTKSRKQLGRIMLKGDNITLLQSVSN
UniProt Q9NZK5: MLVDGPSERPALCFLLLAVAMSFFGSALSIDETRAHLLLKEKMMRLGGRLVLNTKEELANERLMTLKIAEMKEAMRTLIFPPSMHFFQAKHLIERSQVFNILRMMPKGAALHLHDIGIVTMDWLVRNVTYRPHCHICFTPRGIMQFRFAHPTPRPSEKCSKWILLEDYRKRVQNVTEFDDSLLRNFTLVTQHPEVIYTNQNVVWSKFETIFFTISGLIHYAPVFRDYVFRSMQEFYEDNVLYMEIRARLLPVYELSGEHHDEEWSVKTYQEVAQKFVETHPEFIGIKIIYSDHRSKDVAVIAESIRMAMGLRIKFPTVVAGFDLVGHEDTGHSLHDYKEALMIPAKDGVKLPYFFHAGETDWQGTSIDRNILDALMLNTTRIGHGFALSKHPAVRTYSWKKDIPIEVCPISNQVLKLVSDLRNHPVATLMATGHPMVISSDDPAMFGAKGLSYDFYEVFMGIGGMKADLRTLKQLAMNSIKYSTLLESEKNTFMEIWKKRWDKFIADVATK
UniProt Q9P0W2: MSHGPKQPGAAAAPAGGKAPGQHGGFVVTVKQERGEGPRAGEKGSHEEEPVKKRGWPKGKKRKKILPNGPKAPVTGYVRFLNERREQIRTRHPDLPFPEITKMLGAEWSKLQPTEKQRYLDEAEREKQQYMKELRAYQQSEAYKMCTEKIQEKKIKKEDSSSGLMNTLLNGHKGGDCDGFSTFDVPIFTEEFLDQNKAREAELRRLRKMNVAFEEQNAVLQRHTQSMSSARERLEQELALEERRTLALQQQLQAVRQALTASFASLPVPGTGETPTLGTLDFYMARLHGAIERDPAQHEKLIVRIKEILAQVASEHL
UniProt Q02083: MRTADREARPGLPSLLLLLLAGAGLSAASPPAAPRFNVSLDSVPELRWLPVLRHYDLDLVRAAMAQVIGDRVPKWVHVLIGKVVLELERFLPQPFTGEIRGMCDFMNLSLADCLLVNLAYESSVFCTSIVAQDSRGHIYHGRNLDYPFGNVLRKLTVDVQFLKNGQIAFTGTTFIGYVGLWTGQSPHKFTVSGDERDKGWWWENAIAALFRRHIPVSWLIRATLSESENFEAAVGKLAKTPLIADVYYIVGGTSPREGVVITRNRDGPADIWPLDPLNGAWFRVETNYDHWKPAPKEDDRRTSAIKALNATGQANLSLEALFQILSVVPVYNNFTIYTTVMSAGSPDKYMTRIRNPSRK
UniProt P11142, whole entry, looked up: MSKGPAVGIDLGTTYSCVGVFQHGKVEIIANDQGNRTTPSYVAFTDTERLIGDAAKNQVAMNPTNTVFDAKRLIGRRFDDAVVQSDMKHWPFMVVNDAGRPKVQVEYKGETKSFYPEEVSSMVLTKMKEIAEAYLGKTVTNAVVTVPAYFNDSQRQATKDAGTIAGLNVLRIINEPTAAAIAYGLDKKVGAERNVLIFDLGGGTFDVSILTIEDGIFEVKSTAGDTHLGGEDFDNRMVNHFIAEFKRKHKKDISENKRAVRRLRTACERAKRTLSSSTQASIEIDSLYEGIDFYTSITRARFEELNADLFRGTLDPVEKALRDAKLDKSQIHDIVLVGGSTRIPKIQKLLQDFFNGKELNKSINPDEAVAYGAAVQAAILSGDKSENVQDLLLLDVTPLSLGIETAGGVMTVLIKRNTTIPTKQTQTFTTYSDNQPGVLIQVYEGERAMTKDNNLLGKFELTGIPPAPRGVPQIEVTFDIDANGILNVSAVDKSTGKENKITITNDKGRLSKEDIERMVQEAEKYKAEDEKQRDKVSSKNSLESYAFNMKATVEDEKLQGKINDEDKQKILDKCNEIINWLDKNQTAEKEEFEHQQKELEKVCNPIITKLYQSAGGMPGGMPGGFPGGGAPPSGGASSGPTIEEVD
UniProt O75817: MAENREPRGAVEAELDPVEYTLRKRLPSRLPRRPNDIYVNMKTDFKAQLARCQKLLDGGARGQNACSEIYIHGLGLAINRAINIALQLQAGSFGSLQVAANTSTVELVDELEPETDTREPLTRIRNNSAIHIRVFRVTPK

Compound: Nc1nc2c(ncn2[C@@H]2O[C@H](COP(=O)(O)OP(=O)(O)OP(=O)(O)O)[C@@H](O)[C@H]2O)c(=O)[nH]1 [guanosine triphosphate]
Assay: NP40-soluble protein abundance relative to vehicle (solubility fold change) (ratio); higher = more soluble protein in presence of GTP
Summary of the method: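 Data come from three independent experiments in which Dounce-homogenised Jurkat crude lysate was treated at eight concentrations from 0.1 to 10 mM. Treatment ran 10 min at room temperature and then 3 min at 37 °C, after which 0.8% NP40 and benzonase were added for 60 min at 4 °C before ultracentrifugation. The supernatant underwent TMT labelling and LC-MS/MS, and vsn-normalised intensities were expressed as fold change against the detergent-processed vehicle in each replicate.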

| Target | NP40-soluble protein abundance (concentration: 0.1mM) | NP40-soluble protein abundance (concentration: 0.5mM) | NP40-soluble protein abundance (concentration: 1mM) | NP40-soluble protein abundance (concentration: 2mM) | NP40-soluble protein abundance (concentration: 4mM) | NP40-soluble protein abundance (concentration: 6mM) | NP40-soluble protein abundance (concentration: 8mM) | NP40-soluble protein abundance (concentration: 10mM) |
| --- | --- | --- | --- | --- | --- | --- | --- | --- |
| A8MRA7 and related entries (UniProt Q5TC12) | 0.961 ± 0.017 | 0.922 ± 0.016 | 0.954 ± 0.056 | 0.951 ± 0.061 | 0.923 ± 0.023 | 0.87 ± 0.08 | 0.936 ± 0.011 | 0.943 ± 0.032 |
| B4DKD5 and related entries (UniProt Q7Z6M4) | 1.1 ± 0.28 | 1.16 ± 0.23 | 1.1 ± 0.13 | 1.1 ± 0.22 | 1.1 ± 0.25 | 1.16 ± 0.19 | 1.07 ± 0.22 | 1.19 ± 0.3 |
| E5RFH6 and related entries (UniProt P34913) | 0.994 ± 0.045 | 0.986 ± 0.063 | 0.966 ± 0.05 | 0.931 ± 0.051 | 0.901 ± 0.045 | 0.922 ± 0.032 | 0.893 ± 0.031 | 0.893 ± 0.022 |
| D6RJ07 and related entries (UniProt Q9UL40) | 0.93 ± 0.064 | 0.87 ± 0.038 | 1.2 ± 0.063 | 1.17 ± 0.014 | 1.21 ± 0.094 | 1.21 ± 0.13 | 1.18 ± 0.18 | 1.26 ± 0.12 |
| C9J050 and related entries (UniProt P49585) | 1.01 ± 0.094 | 0.986 ± 0.078 | 0.953 ± 0.074 | 0.945 ± 0.077 | 0.992 ± 0.073 | 0.942 ± 0.058 | 0.942 ± 0.079 | 0.936 ± 0.054 |
| E7EMB1 and related entries (UniProt Q9UH65) | 0.991 ± 0.088 | 0.994 ± 0.089 | 0.988 ± 0.12 | 0.936 ± 0.15 | 0.921 ± 0.15 | 0.934 ± 0.16 | 0.982 ± 0.084 | 0.922 ± 0.094 |
| B0QYK0 and related entries (UniProt Q01844) | 0.905 ± 0.05 | 0.928 ± 0.038 | 0.967 ± 0.022 | 0.937 ± 0.075 | 0.905 ± 0.049 | 0.969 ± 0.083 | 0.987 ± 0.034 | 0.979 ± 0.056 |
| C9J0I9 and related entries (UniProt Q86WB0) | 1.02 ± 0.02 | 0.984 ± 0.025 | 0.996 ± 0.013 | 0.961 ± 0.036 | 0.962 ± 0.04 | 0.926 ± 0.033 | 0.972 ± 0.015 | 0.926 ± 0.044 |
| A8CTZ0 and related entries (UniProt Q15811) | 1.03 ± 0.094 | 0.978 ± 0.076 | 0.984 ± 0.1 | 0.942 ± 0.092 | 0.898 ± 0.054 | 0.952 ± 0.1 | 0.908 ± 0.099 | 0.901 ± 0.066 |
| B3KUS5 and related entries (UniProt Q70CQ3) | 0.983 ± 0.23 | 0.936 ± 0.045 | 0.931 ± 0.045 | 1.03 ± 0.033 | 1.04 ± 0.19 | 0.997 ± 0.075 | 0.956 ± 0.013 | 0.982 ± 0.075 |
| B4DEN4 and related entries (UniProt Q8WV99) | 0.981 ± 0.052 | 1.01 ± 0.076 | 1.07 ± 0.1 | 0.998 ± 0.057 | 0.958 ± 0.078 | 1.03 ± 0.14 | 1.06 ± 0.15 | 1.05 ± 0.13 |
| UniProt A6QL63 and related entries | 1.21 ± 0.15 | 1.11 ± 0.13 | 1.12 ± 0.051 | 1.07 ± 0.075 | 1.07 ± 0.19 | 1.044 ± 0.0032 | 1.06 ± 0.028 | 1.01 ± 0.16 |
| C9J0K6 and related entries (UniProt P30626) | 0.91 ± 0.1 | 0.85 ± 0.056 | 1.01 ± 0.12 | 1.01 ± 0.083 | 0.995 ± 0.13 | 0.956 ± 0.077 | 0.91 ± 0.11 | 1.05 ± 0.17 |
| B3KTM8 and related entries (UniProt Q9UBU8) | 0.956 ± 0.012 | 0.986 ± 0.054 | 1.07 ± 0.041 | 1.05 ± 0.093 | 1.08 ± 0.065 | 1.09 ± 0.083 | 1.149 ± 0.0086 | 1.13 ± 0.04 |
| E7EN86 and related entries (UniProt P52747) | 1.06 ± 0.038 | 1.03 ± 0.024 | 0.988 ± 0.058 | 0.94 ± 0.013 | 0.988 ± 0.076 | 0.939 ± 0.055 | 1.03 ± 0.013 | 1.02 ± 0.045 |
| B4DQT1 and related entries (UniProt Q7L5Y9) | 1.1 ± 0.099 | 1.15 ± 0.14 | 1.15 ± 0.19 | 1.22 ± 0.2 | 1.25 ± 0.19 | 1.22 ± 0.22 | 1.25 ± 0.21 | 1.19 ± 0.21 |
| E7EMM4 and related entries (UniProt Q13510) | 0.994 ± 0.015 | 0.951 ± 0.032 | 0.9658 ± 0.0049 | 0.947 ± 0.076 | 0.974 ± 0.048 | 0.936 ± 0.056 | 0.955 ± 0.048 | 0.959 ± 0.032 |
| B8ZZ96 and related entries (UniProt P15882) | 0.975 ± 0.086 | 1.03 ± 0.089 | 0.934 ± 0.037 | 0.969 ± 0.14 | 0.892 ± 0.022 | 0.948 ± 0.04 | 0.884 ± 0.025 | 0.854 ± 0.097 |

| Target | NP40-soluble protein abundance (concentration: 0.1mM) | NP40-soluble protein abundance (concentration: 0.5mM) | NP40-soluble protein abundance (concentration: 1mM) | NP40-soluble protein abundance (concentration: 2mM) | NP40-soluble protein abundance (concentration: 4mM) | NP40-soluble protein abundance (concentration: 6mM) | NP40-soluble protein abundance (concentration: 8mM) | NP40-soluble protein abundance (concentration: 10mM) |
| --- | --- | --- | --- | --- | --- | --- | --- | --- |
| B7Z6D5 and related entries (UniProt Q96GQ7) | 0.963 ± 0.084 | 0.975 ± 0.031 | 1.06 ± 0.043 | 1.06 ± 0.047 | 1.13 ± 0.052 | 1.21 ± 0.13 | 1.22 ± 0.16 | 1.42 ± 0.23 |
| A6NEM2 and related entries (UniProt P51610) | 0.952 ± 0.074 | 0.962 ± 0.063 | 0.981 ± 0.058 | 0.968 ± 0.069 | 0.985 ± 0.06 | 0.996 ± 0.056 | 1.01 ± 0.069 | 1.01 ± 0.098 |
| E5RFZ8 and related entries (UniProt Q15043) | 0.95 ± 0.22 | 0.969 ± 0.23 | 0.952 ± 0.14 | 0.91 ± 0.15 | 0.943 ± 0.2 | 0.866 ± 0.14 | 0.898 ± 0.18 | 0.916 ± 0.25 |
| C9JA08 and related entries (UniProt Q96D46) | 1.107 ± 0.00068 | 1.1 ± 0.11 | 0.975 ± 0.075 | 0.939 ± 0.031 | 0.827 ± 0.067 | 0.874 ± 0.035 | 0.79 ± 0.12 | 0.777 ± 0.21 |
| B4DRN8 and related entries (UniProt Q5W0Z9) | 1.11 ± 0.036 | 1.05 ± 0.11 | 1.29 ± 0.056 | 1.21 ± 0.084 | 1.17 ± 0.1 | 1.19 ± 0.085 | 1.28 ± 0.12 | 1.29 ± 0.11 |
| B4DZS0 and related entries (UniProt O76075) | 1.05 ± 0.076 | 1.07 ± 0.061 | 1.01 ± 0.098 | 0.991 ± 0.1 | 0.948 ± 0.067 | 0.921 ± 0.096 | 0.938 ± 0.071 | 0.912 ± 0.13 |
| B1AKR6 and related entries (UniProt Q9NP97) | 0.951 ± 0.11 | 0.89 ± 0.097 | 1.02 ± 0.13 | 1.02 ± 0.12 | 1.1 ± 0.15 | 1.01 ± 0.1 | 1.01 ± 0.089 | 1.09 ± 0.13 |
| A9Z1X7 and related entries (UniProt Q8IYB3) | 1.01 ± 0.03 | 1.16 ± 0.043 | 1.35 ± 0.061 | 1.27 ± 0.13 | 1.14 ± 0.24 | 1.17 ± 0.23 | 1.17 ± 0.25 | 1.22 ± 0.36 |
| B7Z2R7 and related entries (UniProt Q5T8D3) | 0.939 ± 0.099 | 1.01 ± 0.1 | 0.992 ± 0.066 | 0.979 ± 0.098 | 0.994 ± 0.07 | 0.98 ± 0.068 | 0.999 ± 0.064 | 0.998 ± 0.07 |
| A6NHK2 and related entries (UniProt P62304) | 1.02 ± 0.18 | 0.993 ± 0.14 | 0.968 ± 0.099 | 1.04 ± 0.049 | 1.19 ± 0.18 | 1.09 ± 0.24 | 1.033 ± 0.0048 | 1.094 ± 0.0081 |
| B7ZBK4 and related entries (UniProt Q92664) | 1.05 ± 0.081 | 1.06 ± 0.12 | 1.02 ± 0.12 | 1.02 ± 0.14 | 1.02 ± 0.16 | 1.01 ± 0.16 | 1.04 ± 0.11 | 1.02 ± 0.16 |
| B4E3Q4 and related entries (UniProt Q9NZK5) | 0.977 ± 0.046 | 0.9495 ± 0.0079 | 0.9269 ± 0.0091 | 0.954 ± 0.023 | 0.954 ± 0.075 | 0.941 ± 0.065 | 0.867 ± 0.032 | 0.878 ± 0.039 |
| D6RB08 and related entries (UniProt P14316) | 0.962 ± 0.05 | 1.04 ± 0.051 | 0.993 ± 0.022 | 0.973 ± 0.052 | 0.952 ± 0.048 | 0.971 ± 0.1 | 0.985 ± 0.024 | 1.06 ± 0.086 |
| B5MDG7 and related entries (UniProt Q9P0W2) | 0.99 ± 0.17 | 1.01 ± 0.081 | 1.17 ± 0.15 | 1.21 ± 0.075 | 1.19 ± 0.2 | 1.3 ± 0.26 | 1.29 ± 0.35 | 1.4 ± 0.48 |
| B4DVL2 and related entries (UniProt Q02083) | 1.04 ± 0.054 | 0.959 ± 0.056 | 1.03 ± 0.076 | 1 ± 0.057 | 1.04 ± 0.091 | 0.924 ± 0.051 | 0.937 ± 0.12 | 0.959 ± 0.039 |
| A8K7Q2 and related entries (UniProt P11142) | 0.97 ± 0.091 | 0.982 ± 0.086 | 0.994 ± 0.084 | 0.931 ± 0.092 | 0.957 ± 0.098 | 0.956 ± 0.078 | 0.986 ± 0.11 | 0.949 ± 0.11 |
| C9JYM0 and related entries (UniProt O75817) | 0.958 ± 0.11 | 0.989 ± 0.077 | 1.06 ± 0.046 | 1.06 ± 0.092 | 1.15 ± 0.092 | 1.17 ± 0.077 | 1.17 ± 0.037 | 1.21 ± 0.12 |
| B5MCH7 and related entries (UniProt Q9Y6E2) | 0.967 ± 0.016 | 0.939 ± 0.033 | 0.928 ± 0.022 | 0.88 ± 0.032 | 0.871 ± 0.051 | 0.864 ± 0.048 | 0.863 ± 0.059 | 0.839 ± 0.059 |

Rewritten as tab-separated lines: part of the list above.
Target	NP40-soluble protein abundance (concentration: 0.1mM)	NP40-soluble protein abundance (concentration: 0.5mM)	NP40-soluble protein abundance (concentration: 1mM)	NP40-soluble protein abundance (concentration: 2mM)	NP40-soluble protein abundance (concentration: 4mM)	NP40-soluble protein abundance (concentration: 6mM)	NP40-soluble protein abundance (concentration: 8mM)	NP40-soluble protein abundance (concentration: 10mM)
B4DKD5 and related entries (UniProt Q7Z6M4)	1.1 ± 0.28	1.16 ± 0.23	1.1 ± 0.13	1.1 ± 0.22	1.1 ± 0.25	1.16 ± 0.19	1.07 ± 0.22	1.19 ± 0.3
E5RFH6 and related entries (UniProt P34913)	0.994 ± 0.045	0.986 ± 0.063	0.966 ± 0.05	0.931 ± 0.051	0.901 ± 0.045	0.922 ± 0.032	0.893 ± 0.031	0.893 ± 0.022
B0QYK0 and related entries (UniProt Q01844)	0.905 ± 0.05	0.928 ± 0.038	0.967 ± 0.022	0.937 ± 0.075	0.905 ± 0.049	0.969 ± 0.083	0.987 ± 0.034	0.979 ± 0.056
C9J0I9 and related entries (UniProt Q86WB0)	1.02 ± 0.02	0.984 ± 0.025	0.996 ± 0.013	0.961 ± 0.036	0.962 ± 0.04	0.926 ± 0.033	0.972 ± 0.015	0.926 ± 0.044
B3KUS5 and related entries (UniProt Q70CQ3)	0.983 ± 0.23	0.936 ± 0.045	0.931 ± 0.045	1.03 ± 0.033	1.04 ± 0.19	0.997 ± 0.075	0.956 ± 0.013	0.982 ± 0.075
B3KTM8 and related entries (UniProt Q9UBU8)	0.956 ± 0.012	0.986 ± 0.054	1.07 ± 0.041	1.05 ± 0.093	1.08 ± 0.065	1.09 ± 0.083	1.149 ± 0.0086	1.13 ± 0.04
E7EN86 and related entries (UniProt P52747)	1.06 ± 0.038	1.03 ± 0.024	0.988 ± 0.058	0.94 ± 0.013	0.988 ± 0.076	0.939 ± 0.055	1.03 ± 0.013	1.02 ± 0.045
B5MCH7 and related entries (UniProt Q9Y6E2)	0.967 ± 0.016	0.939 ± 0.033	0.928 ± 0.022	0.88 ± 0.032	0.871 ± 0.051	0.864 ± 0.048	0.863 ± 0.059	0.839 ± 0.059
